In the supplement of paper PMC10331698:
± gives the standard deviation of the averaged measurements. Small differences around the control level are noise.

Key:
Assay in all cases: level (log10 ratio to DMSO vehicle control); higher = higher biomarker level / cell amount than vehicle control
[1] = compound: C=C(C)C(=O)OCCC(F)(F)C(F)(F)C(F)(F)C(F)(F)C(F)(C(F)(F)F)C(F)(F)F [(Perfluoro-5-methylhexyl)ethyl 2-methylprop-2-enoate]; settings: in DMSO
Description: (§1)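 BioMAP Diversity Plus panel of 12 human primary cell co-culture systems (3C, 4H, LPS, SAg, BT, BF4T, BE3C, CASM3C, HDF3CGF, KF3CT, MyoF, Mphg). Compounds were added 1 h before stimulation and left for 24 h (MyoF 48 h; BT 72 h for soluble read-outs or 6 d for IgG). Biomarkers were read by ELISA, cytotoxicity by SRB, PBMC viability and proliferation by Alamar Blue. Each well value was divided by the mean of 8 DMSO control wells on the same plate and log10 transformed; duplicate blinded samples were tested at 4 concentrations.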

[2] = compound: C=C(C)C(=O)OCCC(F)(F)C(F)(F)C(F)(F)C(F)(F)C(F)(F)C(F)(F)C(F)(F)C(F)(F)F [8:2 Fluorotelomer methacrylate]; settings: in DMSO
Description: as §1

[3] = compound: COC(=O)CCC(F)(F)C(F)(F)C(F)(F)C(F)(F)F [Methyl 2H,2H,3H,3H-perfluoroheptanoate]; settings: 2200 nM; in DMSO
Description: as §1

[4] = compound: FC(F)(F)C(F)(F)C(F)(F)C(F)(F)C(F)(F)CCI [1-Iodo-1H,1H,2H,2H-perfluoroheptane]; settings: 2200 nM; in DMSO
Description: as §1

Octafluoroadipamide = compound: NC(=O)C(F)(F)C(F)(F)C(F)(F)C(F)(F)C(N)=O [Octafluoroadipamide]; settings: 2200 nM; in DMSO
Description: as §1

Nonafluoropentanamide = compound: NC(=O)C(F)(F)C(F)(F)C(F)(F)C(F)(F)F [Nonafluoropentanamide]; settings: 2200 nM; in DMSO
Description: as §1

[5] = compound: NS(=O)(=O)C(F)(F)C(F)(F)C(F)(F)C(F)(F)C(F)(F)C(F)(F)F [Perfluorohexanesulfonamide]; settings: 2200 nM; in DMSO
Description: as §1

Tetrafluorosuccinic acid = compound: O=C(O)C(F)(F)C(F)(F)C(=O)O [Tetrafluorosuccinic acid]; settings: 2200 nM; in DMSO
Description: as §1

[6] = compound: O=C(O)C(F)(F)C(F)(F)C(F)(F)C(F)(F)C(F)(F)C(F)(F)C(F)(F)C(F)(F)Cl [9-Chloro-perfluorononanoic acid]; settings: in DMSO
Description: as §1

[7] = compound: O=C(O)CCC(F)(F)C(F)(F)C(F)(F)C(F)(F)C(F)(F)F [2H,2H,3H,3H-Perfluorooctanoic acid]; settings: 2200 nM; in DMSO
Description: as §1

[8] = compound: O=S(=O)(O)C(F)(F)C(F)(F)OC(F)(F)C(F)(F)F [Perfluoro(2-ethoxyethane)sulfonic acid]; settings: 2200 nM; in DMSO
Description: as §1

[9] = compound: O=S(=O)(O)CCC(F)(F)C(F)(F)C(F)(F)C(F)(F)C(F)(F)C(F)(F)F [6:2 Fluorotelomer sulfonic acid]; settings: in DMSO
Description: as §1

Perfluoropinacol = compound: OC(C(F)(F)F)(C(F)(F)F)C(O)(C(F)(F)F)C(F)(F)F [Perfluoropinacol]; settings: in DMSO
Description: as §1

[10] = compound: OCCC(F)(F)C(F)(F)C(F)(F)C(F)(F)F [4:2 Fluorotelomer alcohol]; settings: 2200 nM; in DMSO
Description: as §1

Test System	level (log10) ([1]; 740 nM)	level (log10) ([1]; 2200 nM)	level (log10) ([1]; 6700 nM)	level (log10) ([1]; 20000 nM)	level (log10) ([2]; 740 nM)	level (log10) ([2]; 2200 nM)	level (log10) [3]	level (log10) [4]	level (log10) (Octafluoroadipamide)	level (log10) (Nonafluoropentanamide)	level (log10) [5]	level (log10) (Tetrafluorosuccinic acid)	level (log10) ([6]; 2200 nM)	level (log10) ([6]; 6700 nM)	level (log10) ([6]; 20000 nM)	level (log10) [7]	level (log10) [8]	level (log10) ([9]; 2200 nM)	level (log10) ([9]; 6700 nM)	level (log10) ([9]; 20000 nM)	level (log10) ([9]; 60000 nM)	level (log10) (Perfluoropinacol; 2200 nM)	level (log10) (Perfluoropinacol; 6700 nM)	level (log10) (Perfluoropinacol; 20000 nM)	level (log10) [10]
lMphg:CXCL8/IL-8	0.002 ± 0.069	-0.0045 ± 0.022	-0.0035 ± 0.011	0.006 ± 0.0028	0.0135 ± 0.067	-0.0355 ± 0.046	0.0115 ± 0.005	0.011 ± 0.023	0.029 ± 0.065	-0.0185 ± 0.0078	0.0405 ± 0.019	0.013 ± 0.062	0.017 ± 0.016	-0.0145 ± 0.0078	0.0115 ± 0.025	0.002 ± 0.051	0.007 ± 0.024	-0.0025 ± 0.037	-0.0115 ± 0.005	0.022 ± 0.014	0.0725 ± 0.0092	0.052 ± 0.034	0.0875 ± 0.061	0.161 ± 0.066	0.018 ± 0.017
MyoF:Collagen I	-0.0235 ± 0.0064	-0.02	-0.0325 ± 0.037	-0.037 ± 0.02	-0.0045 ± 0.029	0 ± 0.0028	0.0045 ± 0.013	0.0015 ± 0.015	0.007 ± 0.028	-0.0115 ± 0.022	0.001 ± 0.0042	-0.0115 ± 0.016	-0.0125 ± 0.033	-0.0135 ± 0.005	-0.29 ± 0.019	0.0065 ± 0.032	0.0225 ± 0.005	0.026 ± 0.03	0.011 ± 0.025	-0.022 ± 0.016	0 ± 0.0085	0.0095 ± 0.011	0.044	-0.006 ± 0.0099	-0.008 ± 0.033
HDF3CGF:PAI-I	-0.0325 ± 0.028	-0.039 ± 0.0085	-0.037 ± 0.0028	-0.0385 ± 0.019	0.026 ± 0.082	0.001 ± 0.052	0.0145 ± 0.015	-0.0065 ± 0.039	0.0225 ± 0.059	-0.014 ± 0.069	0.024 ± 0.014	-0.0075 ± 0.015	0.041 ± 0.073	0.0685 ± 0.033	0.0245 ± 0.015	0.021 ± 0.03	0.0215 ± 0.033	0.004 ± 0.024	0.005 ± 0.0042	-0.0015 ± 0.0035	-0.01 ± 0.011	0.0105 ± 0.0078	-0.0325 ± 0.012	-0.117 ± 0.0021	-0.0175 ± 0.13
LPS:sTNF-alpha	-0.014 ± 0.055	0.006 ± 0.0099	0.0265 ± 0.04	0.0345 ± 0.063	-0.0165 ± 0.0021	0.006 ± 0.0014	0.0245 ± 0.035	0.0015 ± 0.044	0.053 ± 0.024	0.0115 ± 0.032	-0.046 ± 0.0071	-0.002 ± 0.011	-0.0155 ± 0.022	-0.0115 ± 0.0078	-0.004 ± 0.014	-0.016 ± 0.013	0.0015 ± 0.0064	-0.01 ± 0.0099	-0.002 ± 0.0042	0 ± 0.0057	0.0015 ± 0.0092	0.0085 ± 0.013	-0.0005 ± 0.025	0.008 ± 0.03	0.016 ± 0.057
CASM3C:LDLR	-0.022 ± 0.048	0.0115 ± 0.098	-0.032 ± 0.03	0.018 ± 0.025	-0.007 ± 0.0085	-0.0095 ± 0.00071	0.0305 ± 0.032	0.0125 ± 0.011	-0.0045 ± 0.012	-0.008 ± 0.02	-0.005 ± 0.014	-0.0015 ± 0.011	0.014 ± 0.037	-0.011 ± 0.013	-0.0065 ± 0.0021	0.0135 ± 0.013	0.0085 ± 0.0078	0.0095 ± 0.013	0.009 ± 0.0057	-0.001 ± 0.018	0.011 ± 0.04	-0.055 ± 0.021	-0.067 ± 0.0014	-0.0505 ± 0.018	-0.0445 ± 0.0078
KF3CT:CCL2/MCP-1	-0.0035 ± 0.005	-0.0075 ± 0.0092	-0.0235 ± 0.0092	-0.0125 ± 0.037	0.007 ± 0.023	-0.0195 ± 0.012	0.009 ± 0.071	-0.0185 ± 0.019	0.001 ± 0.059	-0.002 ± 0.04	-0.02 ± 0.016	-0.0145 ± 0.028	0.0275 ± 0.066	0.004 ± 0.023	0.036 ± 0.035	-0.0015 ± 0.035	0.009 ± 0.02	-0.0005 ± 0.036	0.0125 ± 0.00071	0.0035 ± 0.013	-0.0145 ± 0.043	0.0145 ± 0.0092	0.0955 ± 0.013	0.211 ± 0.024	-0.0265 ± 0.0064
BT:sTNF-alpha	0.117 ± 0.064	0.026 ± 0.023	0.0485 ± 0.1	0.0945 ± 0.03	0.032 ± 0.018	0.008 ± 0.15	0.131 ± 0.05	0.064 ± 0.096	0.182 ± 0.16	0.1 ± 0.078	0.0575 ± 0.19	-0.144 ± 0.071	-0.004 ± 0.047	0.0075 ± 0.011	0.0075 ± 0.022	0.143 ± 0.14	0.0515 ± 0.16	0.0125 ± 0.032	-0.011 ± 0.031	0.0335 ± 0.07	-0.021 ± 0.04	0.102 ± 0.11	0.0425 ± 0.061	-0.146 ± 0.015	-0.059 ± 0.16
CASM3C:CXCL9/MIG	0.0175 ± 0.04	0.014 ± 0.045	0.0335 ± 0.029	0.0445 ± 0.046	0.0125 ± 0.043	0.0035 ± 0.00071	0.003 ± 0.011	0.0005 ± 0.015	0.0305 ± 0.018	0.0365 ± 0.0092	-0.001 ± 0.013	0.0035 ± 0.033	-0.01 ± 0.02	-0.0355 ± 0.0035	-0.0235 ± 0.013	0.01 ± 0.024	0.017 ± 0.048	-0.007 ± 0.051	-0.0445 ± 0.0078	-0.0315 ± 0.0035	-0.015 ± 0.045	-0.007 ± 0.047	-0.013 ± 0.02	-0.0335 ± 0.011	0.0355 ± 0.028
BE3C:MMP-1	0.0055 ± 0.023	0.001 ± 0.011	0.026 ± 0.0042	0.014 ± 0.0057	-0.0005 ± 0.03	0.0095 ± 0.011	0.0355 ± 0.011	-0.0135 ± 0.019	0.027 ± 0.062	0.0115 ± 0.015	0.0115 ± 0.00071	0.0115 ± 0.04	0 ± 0.048	0.083 ± 0.024	0.277 ± 0.0064	0 ± 0.0085	0.001 ± 0.011	-0.01 ± 0.013	-0.013 ± 0.017	-0.0105 ± 0.018	0.078 ± 0.054	0.058 ± 0.051	0.0275 ± 0.0021	-0.003 ± 0.0057	-0.004 ± 0.079
BE3C:CD87/uPAR	-0.0035 ± 0.032	0.003 ± 0.027	0.0035 ± 0.016	0.0165 ± 0.035	0.0235 ± 0.0064	-0.0115 ± 0.028	-0.0155 ± 0.039	-0.0145 ± 0.013	-0.0205 ± 0.012	0.021 ± 0.03	0.0235 ± 0.043	0.016 ± 0.0014	0.0155 ± 0.061	0.0445 ± 0.0021	-0.0005 ± 0.039	0.0125 ± 0.015	0.022 ± 0.0028	0.0125 ± 0.005	0.003 ± 0.0014	-0.0065 ± 0.011	0.0235 ± 0.018	-0.0165 ± 0.021	-0.0675 ± 0.019	-0.231 ± 0.016	0.0215 ± 0.054

2 entries from above, bar-delimited:
Test System | level (log10) ([1]; 740 nM) | level (log10) ([1]; 2200 nM) | level (log10) ([1]; 6700 nM) | level (log10) ([1]; 20000 nM) | level (log10) ([2]; 740 nM) | level (log10) ([2]; 2200 nM) | level (log10) [3] | level (log10) [4] | level (log10) (Octafluoroadipamide) | level (log10) (Nonafluoropentanamide) | level (log10) [5] | level (log10) (Tetrafluorosuccinic acid) | level (log10) ([6]; 2200 nM) | level (log10) ([6]; 6700 nM) | level (log10) ([6]; 20000 nM) | level (log10) [7] | level (log10) [8] | level (log10) ([9]; 2200 nM) | level (log10) ([9]; 6700 nM) | level (log10) ([9]; 20000 nM) | level (log10) ([9]; 60000 nM) | level (log10) (Perfluoropinacol; 2200 nM) | level (log10) (Perfluoropinacol; 6700 nM) | level (log10) (Perfluoropinacol; 20000 nM) | level (log10) [10]
MyoF:Collagen I | -0.0235 ± 0.0064 | -0.02 | -0.0325 ± 0.037 | -0.037 ± 0.02 | -0.0045 ± 0.029 | 0 ± 0.0028 | 0.0045 ± 0.013 | 0.0015 ± 0.015 | 0.007 ± 0.028 | -0.0115 ± 0.022 | 0.001 ± 0.0042 | -0.0115 ± 0.016 | -0.0125 ± 0.033 | -0.0135 ± 0.005 | -0.29 ± 0.019 | 0.0065 ± 0.032 | 0.0225 ± 0.005 | 0.026 ± 0.03 | 0.011 ± 0.025 | -0.022 ± 0.016 | 0 ± 0.0085 | 0.0095 ± 0.011 | 0.044 | -0.006 ± 0.0099 | -0.008 ± 0.033
CASM3C:CXCL9/MIG | 0.0175 ± 0.04 | 0.014 ± 0.045 | 0.0335 ± 0.029 | 0.0445 ± 0.046 | 0.0125 ± 0.043 | 0.0035 ± 0.00071 | 0.003 ± 0.011 | 0.0005 ± 0.015 | 0.0305 ± 0.018 | 0.0365 ± 0.0092 | -0.001 ± 0.013 | 0.0035 ± 0.033 | -0.01 ± 0.02 | -0.0355 ± 0.0035 | -0.0235 ± 0.013 | 0.01 ± 0.024 | 0.017 ± 0.048 | -0.007 ± 0.051 | -0.0445 ± 0.0078 | -0.0315 ± 0.0035 | -0.015 ± 0.045 | -0.007 ± 0.047 | -0.013 ± 0.02 | -0.0335 ± 0.011 | 0.0355 ± 0.028
